Measurements reported in article PMC8699646.
Results are given in words; binding and its absence hold for the method and conditions named. Binding seen in cells or lysates may run through a third protein. Binding can be weak; no strength is given.

Tests used:
[1] = biological target: T1, RalGPS2 (Ral GEF with PH domain and SH3-binding motif 2) (human (endogenous in 5637 and HEK293)) (UniProt Q86X27); test: co-IP; 5637 cells, endogenous proteins; serum-starved (0.5% FBS) 18 h, then stimulated with 10% FBS for 15 min (S) or left unstimulated (NS); IP with anti-RalGPS2 antibodies, western blot
T1 sequence: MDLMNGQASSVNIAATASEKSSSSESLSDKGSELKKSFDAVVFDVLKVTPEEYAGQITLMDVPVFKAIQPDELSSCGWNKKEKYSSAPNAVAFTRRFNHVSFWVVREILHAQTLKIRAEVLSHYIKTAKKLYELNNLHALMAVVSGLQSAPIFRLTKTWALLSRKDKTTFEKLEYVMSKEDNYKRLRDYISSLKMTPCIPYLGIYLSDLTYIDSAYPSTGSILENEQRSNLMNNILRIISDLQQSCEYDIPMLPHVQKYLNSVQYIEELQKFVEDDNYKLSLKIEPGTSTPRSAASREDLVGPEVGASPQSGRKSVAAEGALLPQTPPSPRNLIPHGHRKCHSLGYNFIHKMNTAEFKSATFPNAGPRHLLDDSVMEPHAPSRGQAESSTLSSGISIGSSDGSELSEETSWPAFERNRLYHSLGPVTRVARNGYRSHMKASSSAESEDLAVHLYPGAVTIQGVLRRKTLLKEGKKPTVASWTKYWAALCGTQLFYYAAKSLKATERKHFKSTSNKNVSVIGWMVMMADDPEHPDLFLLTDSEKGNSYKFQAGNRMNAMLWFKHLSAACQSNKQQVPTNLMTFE

[2] = biological target: T1, RalGPS2 (Ral GEF with PH domain and SH3-binding motif 2) (human (endogenous in 5637 and HEK293)); test: co-IP; HEK293 cells, endogenous proteins; serum-starved (0.5% FBS) 18 h, then stimulated with 10% FBS for 15 min (S) or left unstimulated (NS); IP with anti-RalGPS2, anti-LST1 or anti-Sec5 antibodies, western blot

protein kinase B (Akt), total (human (endogenous in 5637 and HEK293))
binding [1]: binds | binding [2]: binds
